Values from PubChem BioAssay AID686938 (Drosophila RNAi Screening Center, 2013).

Purpose: 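Looking for CRAC channel components and the factors controlling them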 (primary screen)
Cell system: Drosophila S2R+ cells
Knock-down reagent: long dsRNA against Drosophila genes, about 0.25 µg dsRNA per well, roughly 10,000 cells
Timing: 5 days of knock-down before the calcium assay
Treatment: thapsigargin (SERCA pump blocker) to empty calcium stores; entry signal taken 4 min after adding it
Measured: 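Per-well fluo-4 fluorescence in two replicates, unnormalised, measured in resting cells and 4 min after store depletion by the SERCA blocker thapsigargin; ratio of the two present in few wells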
Scale: calcium entry signal: higher = stronger calcium signal after store depletion; resting calcium signal: higher = higher resting calcium signal
Active means: 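Hit if the duplicate-averaged plate z-score for entry over resting signal is under −3; wells with weak total dye signal (Fmax z < −2) or more than 5 off-targets removed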
Meaning of the calls: active = strongly reduced calcium entry; inactive = no strong reduction
The deposit covers about 23,000 reagents; below is an unselected part of those with a known target gene and a result. Of all reagents, 75 (0.33%) are marked active. 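Raw plate signals without normalisation; calls rest on plate z-scores that were not deposited; ratio present for only 364 wells.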 Unmarked entries are inactive. No sequences are given here. Not stated in the record: the dose of the treatment.

| Gene | DRSC id | calcium entry signal, replicate 1 (fluorescence units) | calcium entry signal, replicate 2 (fluorescence units) | resting calcium signal, replicate 1 (fluorescence units) | resting calcium signal, replicate 2 (fluorescence units) |
| --- | --- | --- | --- | --- | --- |
| CG17105 | DRSC02574 | 3.41e7 | 4.17e7 | 1.85e7 | 1.89e7 |
| CG8746 | DRSC07257 | 3.82e7 | 4.53e7 | 1.76e7 | 1.89e7 |
| pnut (peanut) | DRSC07666 | 4.39e7 | 4.26e7 | 1.94e7 | 2.12e7 |
| CG8051 | DRSC20077 | 4.84e7 | 4.68e7 | 2.50e7 | 2.13e7 |
| CG12868 | DRSC06207 | 2.34e7 | 3.71e7 | 1.21e7 | 1.59e7 |
| TrpRS (Tryptophanyl-tRNA synthetase) | DRSC14097 | 2.28e7 | 2.64e7 | 1.16e7 | 1.44e7 |
| sunn | DRSC21659 | 3.81e7 | 4.08e7 | 2.31e7 | 1.79e7 |
| ssp6 (short spindle 6) | DRSC08791 | 4.69e7 | 4.34e7 | 2.49e7 | 1.97e7 |
| ssp6 (short spindle 6) | DRSC10677 | 2.49e7 | 4.78e7 | 1.37e7 | 2.07e7 |
| Mayo | DRSC14300 | 4.65e7 | 5.05e7 | 2.43e7 | 2.16e7 |
| CG17782 | DRSC15267 | 3.76e7 | 5.71e7 | 2.06e7 | 2.42e7 |
| CG17782 | DRSC23227 | 3.64e7 | 3.96e7 | 1.70e7 | 1.73e7 |
| Anp (Andropin) | DRSC14112 | 2.70e7 | 2.41e7 | 1.42e7 | 1.25e7 |
| ND-B14 (NADH dehydrogenase (ubiquinone) B14 subunit) | DRSC07029 | 4.43e7 | 4.52e7 | 2.01e7 | 1.70e7 |
| CG42824 | DRSC13230 | 5.30e7 | 2.60e7 | 2.24e7 | 1.28e7 |
| CG34357 | DRSC12211 | 2.67e7 | 6.12e7 | 1.33e7 | 2.64e7 |
| CG34357 | DRSC12238 | 3.45e7 | 5.68e7 | 1.78e7 | 2.70e7 |
| CG34357 | DRSC12334 | 3.23e7 | 5.57e7 | 1.66e7 | 2.59e7 |
| CG34357 | DRSC23031 | 3.71e7 | 3.32e7 | 1.89e7 | 1.52e7 |
| Gyc89Da (Guanylyl cyclase at 89Da) | DRSC15008 | 2.96e7 | 5.97e7 | 1.60e7 | 6.65e7 |
| CG3448 | DRSC10368 | 2.62e7 | 3.67e7 | 1.40e7 | 1.59e7 |
| CG9166 | DRSC07842 | 3.42e7 | 4.47e7 | 1.72e7 | 1.80e7 |
| Eip93F (Ecdysone-induced protein 93F) | DRSC13527 | 2.49e7 | 2.51e7 | 1.25e7 | 1.20e7 |
| Eip93F (Ecdysone-induced protein 93F) | DRSC16661 | 4.09e7 | 5.55e7 | 7.53e7 | 2.63e7 |
| Eip93F (Ecdysone-induced protein 93F) | DRSC21754 | 3.07e7 | 3.29e7 | 1.47e7 | 1.58e7 |
| Eip93F (Ecdysone-induced protein 93F) | DRSC23072 | 3.57e7 | 3.54e7 | 1.69e7 | 1.45e7 |

Part of the list above in another layout.
CG12868 [DRSC06207]
- calcium entry signal, replicate 1 (fluorescence units): 2.34e7
- calcium entry signal, replicate 2 (fluorescence units): 3.71e7
- resting calcium signal, replicate 1 (fluorescence units): 1.21e7
- resting calcium signal, replicate 2 (fluorescence units): 1.59e7

TrpRS (Tryptophanyl-tRNA synthetase) [DRSC14097]
- calcium entry signal, replicate 1 (fluorescence units): 2.28e7
- calcium entry signal, replicate 2 (fluorescence units): 2.64e7
- resting calcium signal, replicate 1 (fluorescence units): 1.16e7
- resting calcium signal, replicate 2 (fluorescence units): 1.44e7

sunn [DRSC21659]
- calcium entry signal, replicate 1 (fluorescence units): 3.81e7
- calcium entry signal, replicate 2 (fluorescence units): 4.08e7
- resting calcium signal, replicate 1 (fluorescence units): 2.31e7
- resting calcium signal, replicate 2 (fluorescence units): 1.79e7
